In test [1] the target is T1, C-terminal FLAG-tagged mouse FAM83H (pCMV-Tag4A-Fam83h) (mouse) (UniProt Q148V8).
T1 sequence: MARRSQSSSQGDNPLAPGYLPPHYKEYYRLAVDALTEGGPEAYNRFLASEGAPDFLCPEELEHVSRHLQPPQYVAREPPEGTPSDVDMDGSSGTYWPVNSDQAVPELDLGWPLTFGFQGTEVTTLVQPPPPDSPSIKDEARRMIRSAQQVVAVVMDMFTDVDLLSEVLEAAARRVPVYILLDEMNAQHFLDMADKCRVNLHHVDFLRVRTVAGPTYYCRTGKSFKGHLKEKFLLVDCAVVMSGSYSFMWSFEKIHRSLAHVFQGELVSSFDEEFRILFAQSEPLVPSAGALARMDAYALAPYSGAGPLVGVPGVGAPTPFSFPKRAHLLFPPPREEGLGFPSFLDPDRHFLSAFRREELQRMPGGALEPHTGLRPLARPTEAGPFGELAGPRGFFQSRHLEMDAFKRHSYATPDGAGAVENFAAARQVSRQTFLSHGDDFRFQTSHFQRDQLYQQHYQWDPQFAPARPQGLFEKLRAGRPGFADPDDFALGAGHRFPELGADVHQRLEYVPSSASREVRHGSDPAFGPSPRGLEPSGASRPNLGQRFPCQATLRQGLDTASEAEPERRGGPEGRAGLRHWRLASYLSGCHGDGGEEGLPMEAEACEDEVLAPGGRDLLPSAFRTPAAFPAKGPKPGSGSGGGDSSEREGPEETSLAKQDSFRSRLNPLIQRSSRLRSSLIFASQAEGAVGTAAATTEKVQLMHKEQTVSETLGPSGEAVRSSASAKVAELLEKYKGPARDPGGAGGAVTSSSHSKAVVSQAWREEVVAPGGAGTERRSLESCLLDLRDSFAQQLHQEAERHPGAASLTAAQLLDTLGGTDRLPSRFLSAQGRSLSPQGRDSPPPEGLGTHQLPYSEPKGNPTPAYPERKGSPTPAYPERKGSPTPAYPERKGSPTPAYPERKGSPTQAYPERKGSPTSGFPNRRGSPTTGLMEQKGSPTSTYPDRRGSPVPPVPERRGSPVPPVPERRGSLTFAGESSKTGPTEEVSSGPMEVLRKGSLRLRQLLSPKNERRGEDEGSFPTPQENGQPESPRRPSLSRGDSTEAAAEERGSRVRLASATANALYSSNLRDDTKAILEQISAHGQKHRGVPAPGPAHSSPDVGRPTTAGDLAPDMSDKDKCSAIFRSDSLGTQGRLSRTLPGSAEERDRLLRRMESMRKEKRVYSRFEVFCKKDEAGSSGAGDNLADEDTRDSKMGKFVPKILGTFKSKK
Description: co-IP; Mouse FAM83H-FLAG expressed in HEK293 cells; anti-FLAG immunoprecipitation from lysate; immunoblot for endogenous CK1δ and CK1ε. (A western blot detects proteins with antibodies after separation by electrophoresis.)

Protein sequences, listed by entry. Tags and fused reporters are not part of them.
UniProt P49674: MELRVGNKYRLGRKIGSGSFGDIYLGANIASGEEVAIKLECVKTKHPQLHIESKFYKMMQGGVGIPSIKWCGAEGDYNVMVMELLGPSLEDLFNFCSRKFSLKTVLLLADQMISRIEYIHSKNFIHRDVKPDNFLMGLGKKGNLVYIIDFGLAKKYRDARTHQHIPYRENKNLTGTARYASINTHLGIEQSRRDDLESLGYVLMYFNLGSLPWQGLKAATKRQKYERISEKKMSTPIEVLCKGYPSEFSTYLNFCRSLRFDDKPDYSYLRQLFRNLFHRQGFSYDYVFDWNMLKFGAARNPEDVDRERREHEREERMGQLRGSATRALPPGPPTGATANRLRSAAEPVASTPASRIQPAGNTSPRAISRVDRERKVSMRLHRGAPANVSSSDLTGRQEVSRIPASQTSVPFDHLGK

The target of test [2] is T2, N-terminal FLAG-tagged mouse FAM83H^1-287 (pCMV-Tag2B-Fam83h^1-287) (mouse) (UniProt Q148V8).
T2 sequence: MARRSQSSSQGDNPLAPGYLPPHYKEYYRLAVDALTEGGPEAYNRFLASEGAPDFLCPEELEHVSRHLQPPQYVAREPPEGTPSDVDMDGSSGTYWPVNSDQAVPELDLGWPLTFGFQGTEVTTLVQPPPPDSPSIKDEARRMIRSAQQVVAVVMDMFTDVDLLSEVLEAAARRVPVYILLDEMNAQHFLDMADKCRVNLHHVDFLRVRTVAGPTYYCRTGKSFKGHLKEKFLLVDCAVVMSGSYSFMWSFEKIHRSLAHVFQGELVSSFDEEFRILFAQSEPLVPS
Nature of the test: co-IP; FLAG-tagged FAM83H construct and Myc-tagged partner co-expressed in HEK293 cells; NP40 lysate; anti-FLAG antibody on protein A Dynabeads, 30 min at room temperature, washed twice; immunoblot with anti-Myc (or anti-CK1ε).

For test [3], the target named is T3, N-terminal FLAG-tagged mouse FAM83H^1-697 (pCMV-Tag2B-Fam83h^1-697) (mouse) (UniProt Q148V8).
T3 sequence: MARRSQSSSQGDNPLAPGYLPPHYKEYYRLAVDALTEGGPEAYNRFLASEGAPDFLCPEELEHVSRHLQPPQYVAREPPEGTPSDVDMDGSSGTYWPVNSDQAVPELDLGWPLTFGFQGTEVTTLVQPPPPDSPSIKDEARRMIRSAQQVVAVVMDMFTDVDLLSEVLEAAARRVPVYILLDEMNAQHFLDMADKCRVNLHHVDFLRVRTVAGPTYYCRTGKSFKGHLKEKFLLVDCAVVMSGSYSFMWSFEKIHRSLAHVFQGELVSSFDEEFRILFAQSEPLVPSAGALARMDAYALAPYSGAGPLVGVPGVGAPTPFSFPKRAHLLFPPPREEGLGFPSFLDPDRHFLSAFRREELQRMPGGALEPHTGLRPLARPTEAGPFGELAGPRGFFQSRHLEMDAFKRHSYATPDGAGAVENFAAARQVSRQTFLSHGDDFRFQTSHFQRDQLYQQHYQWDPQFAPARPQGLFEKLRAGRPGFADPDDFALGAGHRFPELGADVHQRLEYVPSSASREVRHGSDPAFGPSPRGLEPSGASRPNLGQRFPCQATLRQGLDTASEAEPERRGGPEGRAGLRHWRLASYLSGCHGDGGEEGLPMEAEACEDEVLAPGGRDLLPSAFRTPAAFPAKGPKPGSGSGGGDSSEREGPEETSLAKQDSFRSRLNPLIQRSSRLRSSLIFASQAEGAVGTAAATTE
The description is as above.

The target in test [4] is T1, C-terminal FLAG-tagged mouse FAM83H (pCMV-Tag4A-Fam83h) (mouse). The description is as above.
In test [5] the target is T4, N-terminal FLAG-tagged full-length mouse FAM83H (pCMV-Tag2B-Fam83h) (mouse) (UniProt Q148V8).
T4 sequence: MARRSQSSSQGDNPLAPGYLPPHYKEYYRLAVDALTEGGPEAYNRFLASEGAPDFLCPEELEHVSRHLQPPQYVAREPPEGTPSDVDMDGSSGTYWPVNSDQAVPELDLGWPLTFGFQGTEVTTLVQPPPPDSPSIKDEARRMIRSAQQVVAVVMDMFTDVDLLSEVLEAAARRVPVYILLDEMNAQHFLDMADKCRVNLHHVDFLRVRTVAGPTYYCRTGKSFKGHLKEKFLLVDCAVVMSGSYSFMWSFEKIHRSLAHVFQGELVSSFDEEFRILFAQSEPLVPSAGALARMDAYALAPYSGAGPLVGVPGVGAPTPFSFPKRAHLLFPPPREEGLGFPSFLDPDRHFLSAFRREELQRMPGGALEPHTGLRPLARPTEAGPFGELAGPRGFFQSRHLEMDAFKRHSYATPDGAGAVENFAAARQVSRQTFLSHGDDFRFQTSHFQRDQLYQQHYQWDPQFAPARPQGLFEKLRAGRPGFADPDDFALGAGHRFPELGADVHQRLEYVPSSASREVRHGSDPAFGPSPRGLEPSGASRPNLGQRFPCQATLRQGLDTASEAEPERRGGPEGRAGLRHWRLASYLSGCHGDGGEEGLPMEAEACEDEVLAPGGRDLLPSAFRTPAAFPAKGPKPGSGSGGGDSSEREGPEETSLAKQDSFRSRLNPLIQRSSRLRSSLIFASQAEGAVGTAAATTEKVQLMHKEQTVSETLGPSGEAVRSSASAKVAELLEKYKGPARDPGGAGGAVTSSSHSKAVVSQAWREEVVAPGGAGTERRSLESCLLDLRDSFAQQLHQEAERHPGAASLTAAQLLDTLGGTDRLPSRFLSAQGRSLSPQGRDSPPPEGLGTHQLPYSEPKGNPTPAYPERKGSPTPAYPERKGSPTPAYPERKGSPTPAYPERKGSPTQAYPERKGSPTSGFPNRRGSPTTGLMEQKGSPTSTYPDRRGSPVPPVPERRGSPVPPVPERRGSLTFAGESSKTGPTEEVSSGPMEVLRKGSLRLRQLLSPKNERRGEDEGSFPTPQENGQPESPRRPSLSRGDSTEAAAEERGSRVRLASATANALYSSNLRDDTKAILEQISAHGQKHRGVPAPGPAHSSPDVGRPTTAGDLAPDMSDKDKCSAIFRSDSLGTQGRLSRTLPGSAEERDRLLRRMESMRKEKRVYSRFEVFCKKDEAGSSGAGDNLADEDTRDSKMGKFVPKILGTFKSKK
Described as above.

Binding data for two molecules are collected here from publication PMC4707031.

These are yes or no findings as the source states them, for the method shown. Binding seen in cells or lysates may run through a third protein. Some entries that bind do so weakly or less than the wild type. Where a sequence is shown, tags or fusion partners need not be part of it.

For the molecule “Casein kinase 1 epsilon (CK1ε), endogenous in HEK293 cells (from UniProt P49674 1-416) (enzyme)”, in test [1], the binding result was “binds”.

B1: C-terminal Myc-tagged mouse FAM83H (pCMV-Tag5A-Fam83h) (protein, UniProt Q148V8 1-1209)
chain: MARRSQSSSQGDNPLAPGYLPPHYKEYYRLAVDALTEGGPEAYNRFLASEGAPDFLCPEELEHVSRHLQPPQYVAREPPEGTPSDVDMDGSSGTYWPVNSDQAVPELDLGWPLTFGFQGTEVTTLVQPPPPDSPSIKDEARRMIRSAQQVVAVVMDMFTDVDLLSEVLEAAARRVPVYILLDEMNAQHFLDMADKCRVNLHHVDFLRVRTVAGPTYYCRTGKSFKGHLKEKFLLVDCAVVMSGSYSFMWSFEKIHRSLAHVFQGELVSSFDEEFRILFAQSEPLVPSAGALARMDAYALAPYSGAGPLVGVPGVGAPTPFSFPKRAHLLFPPPREEGLGFPSFLDPDRHFLSAFRREELQRMPGGALEPHTGLRPLARPTEAGPFGELAGPRGFFQSRHLEMDAFKRHSYATPDGAGAVENFAAARQVSRQTFLSHGDDFRFQTSHFQRDQLYQQHYQWDPQFAPARPQGLFEKLRAGRPGFADPDDFALGAGHRFPELGADVHQRLEYVPSSASREVRHGSDPAFGPSPRGLEPSGASRPNLGQRFPCQATLRQGLDTASEAEPERRGGPEGRAGLRHWRLASYLSGCHGDGGEEGLPMEAEACEDEVLAPGGRDLLPSAFRTPAAFPAKGPKPGSGSGGGDSSEREGPEETSLAKQDSFRSRLNPLIQRSSRLRSSLIFASQAEGAVGTAAATTEKVQLMHKEQTVSETLGPSGEAVRSSASAKVAELLEKYKGPARDPGGAGGAVTSSSHSKAVVSQAWREEVVAPGGAGTERRSLESCLLDLRDSFAQQLHQEAERHPGAASLTAAQLLDTLGGTDRLPSRFLSAQGRSLSPQGRDSPPPEGLGTHQLPYSEPKGNPTPAYPERKGSPTPAYPERKGSPTPAYPERKGSPTPAYPERKGSPTQAYPERKGSPTSGFPNRRGSPTTGLMEQKGSPTSTYPDRRGSPVPPVPERRGSPVPPVPERRGSLTFAGESSKTGPTEEVSSGPMEVLRKGSLRLRQLLSPKNERRGEDEGSFPTPQENGQPESPRRPSLSRGDSTEAAAEERGSRVRLASATANALYSSNLRDDTKAILEQISAHGQKHRGVPAPGPAHSSPDVGRPTTAGDLAPDMSDKDKCSAIFRSDSLGTQGRLSRTLPGSAEERDRLLRRMESMRKEKRVYSRFEVFCKKDEAGSSGAGDNLADEDTRDSKMGKFVPKILGTFKSKK
Regarding B1, the binding entry in test [2], in test [3], in test [4] and in test [5] was “binds” in each case.
